These are yes or no findings as the source states them, for the method shown. Some binding calls cover weakened binding; strength is not graded here.
Biological target: L3MBTL2 (human) (UniProt Q969R5)
Assay: reciprocal immunoprecipitation and Western blot in 293T cells, DNA digested

The chains behind the UniProt entries cited, without tags or fusion partners.
UniProt Q969R5: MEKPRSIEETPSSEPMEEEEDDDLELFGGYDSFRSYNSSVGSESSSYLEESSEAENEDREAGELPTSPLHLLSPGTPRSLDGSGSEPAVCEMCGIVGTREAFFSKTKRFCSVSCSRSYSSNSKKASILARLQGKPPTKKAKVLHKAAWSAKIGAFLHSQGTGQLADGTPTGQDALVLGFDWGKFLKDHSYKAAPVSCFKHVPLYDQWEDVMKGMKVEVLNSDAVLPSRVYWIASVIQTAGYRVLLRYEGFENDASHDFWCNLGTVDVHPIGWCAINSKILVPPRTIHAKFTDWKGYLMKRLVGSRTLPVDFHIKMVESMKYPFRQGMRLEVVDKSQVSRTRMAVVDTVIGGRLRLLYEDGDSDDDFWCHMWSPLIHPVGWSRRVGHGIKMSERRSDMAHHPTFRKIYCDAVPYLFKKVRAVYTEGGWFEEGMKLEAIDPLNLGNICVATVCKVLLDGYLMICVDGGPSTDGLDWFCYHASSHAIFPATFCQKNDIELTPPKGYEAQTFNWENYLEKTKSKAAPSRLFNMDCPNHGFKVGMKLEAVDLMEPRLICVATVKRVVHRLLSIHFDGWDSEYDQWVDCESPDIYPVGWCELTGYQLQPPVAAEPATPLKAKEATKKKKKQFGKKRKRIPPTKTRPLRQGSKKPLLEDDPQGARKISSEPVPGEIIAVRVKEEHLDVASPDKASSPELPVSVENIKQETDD
UniProt Q92560: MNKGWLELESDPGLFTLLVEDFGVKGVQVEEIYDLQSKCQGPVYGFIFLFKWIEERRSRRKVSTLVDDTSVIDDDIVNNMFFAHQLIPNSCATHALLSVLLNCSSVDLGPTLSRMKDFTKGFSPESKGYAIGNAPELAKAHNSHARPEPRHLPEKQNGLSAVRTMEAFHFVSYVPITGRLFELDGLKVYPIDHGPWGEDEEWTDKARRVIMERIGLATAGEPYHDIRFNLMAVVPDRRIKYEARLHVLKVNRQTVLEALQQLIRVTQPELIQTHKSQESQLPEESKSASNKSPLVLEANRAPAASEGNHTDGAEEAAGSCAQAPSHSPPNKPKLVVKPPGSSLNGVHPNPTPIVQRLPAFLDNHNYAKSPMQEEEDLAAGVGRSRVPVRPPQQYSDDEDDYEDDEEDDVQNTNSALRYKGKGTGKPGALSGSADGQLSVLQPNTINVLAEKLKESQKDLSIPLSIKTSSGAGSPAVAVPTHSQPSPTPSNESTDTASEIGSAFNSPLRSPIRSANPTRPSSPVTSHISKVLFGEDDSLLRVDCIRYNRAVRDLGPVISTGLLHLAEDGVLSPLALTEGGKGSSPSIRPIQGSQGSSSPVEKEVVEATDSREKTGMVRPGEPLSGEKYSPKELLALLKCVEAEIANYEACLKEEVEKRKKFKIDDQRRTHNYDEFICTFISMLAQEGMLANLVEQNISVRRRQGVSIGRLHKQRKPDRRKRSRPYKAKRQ

- binding: binds
Substance: BRCA1 associated protein-1 (BAP1) (from UniProt Q92560 1-729) (enzyme)

— patent US20170138946A1, “BIOMARKERS FOR RESPONSE TO EZH2 INHIBITORS” (Memorial Sloan-Kettering Cancer Center, priority 2014, published 2017)
